Paper PMC11610137, “TRIM4 enhances small-molecule-induced neddylated-degradation of CORO1A for triple negative breast cancer therapy” (Theranostics, 2024)
Results are given in words; binding and its absence hold for the method and conditions named. Binding seen in cells or lysates may run through a third protein. Some entries that bind do so weakly or less than the wild type.

The chains behind the UniProt entries cited, without tags or fusion partners.
UniProt P31146: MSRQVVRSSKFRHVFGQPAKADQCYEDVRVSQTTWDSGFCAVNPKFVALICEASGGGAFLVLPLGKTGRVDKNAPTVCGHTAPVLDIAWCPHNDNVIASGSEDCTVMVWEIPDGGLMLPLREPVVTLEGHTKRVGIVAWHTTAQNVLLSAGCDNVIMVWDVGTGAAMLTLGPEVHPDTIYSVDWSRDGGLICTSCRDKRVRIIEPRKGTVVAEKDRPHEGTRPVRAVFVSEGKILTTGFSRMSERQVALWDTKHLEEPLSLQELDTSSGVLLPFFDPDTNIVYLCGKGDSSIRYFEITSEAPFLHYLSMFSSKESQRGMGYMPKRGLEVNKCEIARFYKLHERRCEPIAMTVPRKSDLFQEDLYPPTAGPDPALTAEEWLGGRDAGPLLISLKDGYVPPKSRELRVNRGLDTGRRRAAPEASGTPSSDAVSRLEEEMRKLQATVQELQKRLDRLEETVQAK

Target: Coronin 1A (CORO1A) (Homo sapiens, UniProt P31146)
Test: co-IP; HEK 293T cells transfected with CORO1A (and TRIM4) plasmid DNA, with or without AB (0.2 uM, 24 h); IP lysis buffer, non-denaturing; anti-CORO1A overnight at 4°C, Protein A beads, Western blot

B1: TRIM4 (protein, UniProt Q9C037 1-500)
chain: MEAEDIQEELTCPICLDYFQDPVSIECGHNFCRGCLHRNWAPGGGPFPCPECRHPSAPAALRPNWALARLTEKTQRRRLGPVPPGLCGRHWEPLRLFCEDDQRPVCLVCRESQEHQTHAMAPIDEAFESYRTGNFDIHVDEWKRRLIRLLLYHFKQEEKLLKSQRNLVAKMKKVMHLQDVEVKNATQWKDKIKSQRMRISTEFSKLHNFLVEEEDLFLQRLNKEEEETKKKLNENTLKLNQTIASLKKLILEVGEKSQAPTLELLQNPKEVLTRSEIQDVNYSLEAVKVKTVCQIPLMKEMLKRFQVAVNLAEDTAHPKLVFSQEGRYVKNTASASSWPVFSSAWNYFAGWRNPQKTAFVERFQHLPCVLGKNVFTSGKHYWEVESRDSLEVAVGVCREDVMGITDRSKMSPDVGIWAIYWSAAGYWPLIGFPGTPTQQEPALHRVGVYLDRGTGNVSFYSAVDGVHLHTFSCSSVSRLRPFFWLSPLASLVIPPVTDRK
  binding: binds
